In publication PMC5499739, “An RRM–ZnF RNA recognition module targets RBM10 to exonic sequences to promote exon exclusion”:

Key:
[1] = molecular target: T1, RBM10 RRM1-ZnF (Homo sapiens) (UniProt P98175); test: ITC; details: 10 uM ZnCl2, range given for both G-to-A mutants; 10 mM sodium phosphate pH 6.9, 50 mM NaCl, 1 mM TCEP (+10 uM ZnCl2 for ZnF constructs); ITC 25 C; recombinant protein; protein details: His6 or His6-SUMO3, cleaved with HRV 3C
T1 sequence (looked up, limits assumed): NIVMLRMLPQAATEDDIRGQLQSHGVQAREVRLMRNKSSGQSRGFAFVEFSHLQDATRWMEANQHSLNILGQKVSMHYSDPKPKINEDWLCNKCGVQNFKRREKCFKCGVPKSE

[2] = molecular target: T2, RBM10 RRM1-ZnF (Homo sapiens) (UniProt P98175); test: pull-down; details: 20 nM protein; 20 mM Hepes pH 7.8, 80 mM KCl, 20 mM NaCl, 10% glycerol, 2 mM DTT; 4 C; purified recombinant protein; residues 122-248; protein details: GST, kept; only the motif is given
T2 sequence (looked up): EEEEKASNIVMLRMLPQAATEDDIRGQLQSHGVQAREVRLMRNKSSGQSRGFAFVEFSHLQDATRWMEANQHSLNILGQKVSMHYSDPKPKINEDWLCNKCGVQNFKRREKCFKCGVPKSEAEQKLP

| Sequence | binding result [1] | binding signal (RNAcompete z-score) [2] |
| --- | --- | --- |
| CUGUGAA | binds more weakly | – |
| CUGUAGA | binds more weakly | – |
| UUGUGAA [7-mer UUGUGAA] | – | -0.002 |

For part of these data: The exact form of at least one protein or probe is not confirmed. For part of these data: The comparison behind a weaker result is the experiment's own reference, which may not be listed here. Tags and fusion partners may be left off the protein sequences shown. For part of these data: The direction of at least one scale is not stated here.
